# Assay results published in the supplement of paper PMC8728848.
# Some of the results follow.
# Assays:
# Assay in all cases: glycan array binding signal (z-score within array); higher = stronger binding
# Conditions in all cases: glycan notation: IUPAC condensed, linker removed
# [1] = target: Gal(b1-4)GlcNAc(b1-6)GalNAc
# Summary of the method: (§1)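 Glycan array data were curated from 3228 arrays in the Consortium for Functional Glycomics database and kept only where the protein sequence was available. Glycan names were converted to IUPAC-condensed notation, and columns mapping to the same glycan were averaged. The binding signal is a within-array Z-score, averaged across arrays of the same protein sequence at different concentrations or buffers and across linkers. Negative Z-scores can be read as non-binding.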
# [2] = target: Gal(b1-4)GlcNAc(b1-6)[Gal(b1-3)]GalNAc
# Summary of the method: as §1
# [3] = target: Gal(b1-4)GlcNAc(b1-6)[Gal(b1-4)GlcNAc(b1-3)]GalNAc
# Summary of the method: as §1
# Gal(b1-4)GlcNAc6P = target: Gal(b1-4)GlcNAc6P
# Summary of the method: as §1
# Gal(b1-6)Gal = target: Gal(b1-6)Gal
# Summary of the method: as §1
# Gal3S(b1-3)GalNAc = target: Gal3S(b1-3)GalNAc
# Summary of the method: as §1
# Gal3S(b1-3)GlcNAc = target: Gal3S(b1-3)GlcNAc
# Summary of the method: as §1
# [4] = target: Gal3S(b1-3)[Fuc(a1-4)]GlcNAc
# Summary of the method: as §1
# Gal3S(b1-4)Glc = target: Gal3S(b1-4)Glc
# Summary of the method: as §1
# Gal3S(b1-4)Glc6S = target: Gal3S(b1-4)Glc6S
# Summary of the method: as §1
# Gal3S(b1-4)GlcNAc = target: Gal3S(b1-4)GlcNAc
# Summary of the method: as §1
# [5] = target: Gal3S(b1-4)[Fuc(a1-3)]Glc6S
# Summary of the method: as §1
# [6] = target: Gal3S(b1-4)[Fuc(a1-3)]GlcNAc
# Summary of the method: as §1
# [7] = target: Gal3S(b1-4)[Fuc(a1-3)]GlcNAc6S
# Summary of the method: as §1
# Gal3S4S(b1-4)GlcNAc = target: Gal3S4S(b1-4)GlcNAc
# Summary of the method: as §1
# Gal3S6S(b1-4)GlcNAc = target: Gal3S6S(b1-4)GlcNAc
# Summary of the method: as §1
# Gal3S6S(b1-4)GlcNAc6S = target: Gal3S6S(b1-4)GlcNAc6S
# Summary of the method: as §1
# Gal4S(b1-4)GlcNAc = target: Gal4S(b1-4)GlcNAc
# Summary of the method: as §1
# Gal4S6S(b1-4)GlcNAc = target: Gal4S6S(b1-4)GlcNAc
# Summary of the method: as §1
# Gal6P(b1-4)GlcNAc = target: Gal6P(b1-4)GlcNAc
# Summary of the method: as §1
# Gal6S(b1-3)GlcNAc = target: Gal6S(b1-3)GlcNAc
# Summary of the method: as §1
# Gal6S(b1-3)GlcNAc6S = target: Gal6S(b1-3)GlcNAc6S
# Summary of the method: as §1
# Gal6S(b1-4)Glc = target: Gal6S(b1-4)Glc
# Summary of the method: as §1
# Gal6S(b1-4)Glc6S = target: Gal6S(b1-4)Glc6S
# Summary of the method: as §1
# Gal6S(b1-4)GlcNAc = target: Gal6S(b1-4)GlcNAc
# Summary of the method: as §1
# Gal6S(b1-4)GlcNAc6S = target: Gal6S(b1-4)GlcNAc6S
# Summary of the method: as §1
# GalNAc(a1-3)Gal = target: GalNAc(a1-3)Gal
# Summary of the method: as §1
# GalNAc(a1-3)GalNAc = target: GalNAc(a1-3)GalNAc
# Summary of the method: as §1
# [8] = target: GalNAc(a1-3)GalNAc(b1-3)Gal(a1-4)Gal(b1-4)Glc
# Summary of the method: as §1
# [9] = target: GalNAc(a1-3)GalNAc(b1-3)Gal(a1-4)Gal(b1-4)GlcNAc
# Summary of the method: as §1
# GalNAc(b1-3)Gal = target: GalNAc(b1-3)Gal
# Summary of the method: as §1
# [10] = target: GalNAc(b1-3)Gal(a1-4)Gal(b1-4)GlcNAc
# Summary of the method: as §1
# [11] = target: GalNAc(b1-3)Gal(a1-4)Gal(b1-4)GlcNAc(b1-3)Gal(b1-4)Glc
# Summary of the method: as §1
# [12] = target: GalNAc(b1-3)Gal(a1-6)Gal(b1-4)Glc
# Summary of the method: as §1
# GalNAc(b1-3)GalNAc = target: GalNAc(b1-3)GalNAc
# Summary of the method: as §1
# GalNAc(b1-3)GlcNAc = target: GalNAc(b1-3)GlcNAc
# Summary of the method: as §1
# GalNAc(b1-4)Gal(b1-4)Glc = target: GalNAc(b1-4)Gal(b1-4)Glc
# Summary of the method: as §1
# GalNAc(b1-4)GlcNAc = target: GalNAc(b1-4)GlcNAc
# Summary of the method: as §1
binder,measurement,setting,value
PX9961KLbvu-535-38-535 (Bacteroides vulgatus) (protein) DKAYTDAESYTKGLHKIYSVWALSGQDGSSSSDISGLDAGNTALLRCWWTLQEQPTDEMKNAWNDAWCTEVNYMTWTTNKVEPIEGVYQRCMYIVALVNEFLKNIPNAPESIDKESYIAQARFNRAFAYYVLMDMFALPPFITEKNYSIEPAPLSREDLFNWIEAELNEIKPNLPSPRSEYGVADQAVASALLARMYLNAEIYTGKARYTECINACNEVIKAGYQLADNYADLFKADNGENPDTKKEIIYPIIFDGDKTQSWGMAAIIIGARGAEDKDVLLAHSGVDQGWAGFRATSNLVHLFDFQNDEEPKASEIQDKRGIFYDKGRSIDITSSVSGTFETEGWSVFKFSNLNSNGQPGKNTLWVDTDFPMFRLGDIYLMYAEAVARGGEGSKASAVEYINALRKRAYGDDKHNISENWLEENNFRNLLDERGRELYWEGIRRTDLVRFDLLTSGSYTWDFKGGINTGVGVNKRYNVYPIPVTDLTVNGNLQQNEGY,glycan array binding signal (z-score),[1],0.727
same,glycan array binding signal (z-score),[2],-0.057
same,glycan array binding signal (z-score),[3],-0.201
same,glycan array binding signal (z-score),Gal(b1-4)GlcNAc6P,0.047
same,glycan array binding signal (z-score),Gal(b1-6)Gal,0.07
same,glycan array binding signal (z-score),Gal3S(b1-3)GalNAc,-0.326
same,glycan array binding signal (z-score),Gal3S(b1-3)GlcNAc,0.042
same,glycan array binding signal (z-score),[4],-0.281
same,glycan array binding signal (z-score),Gal3S(b1-4)Glc,1.38
same,glycan array binding signal (z-score),Gal3S(b1-4)Glc6S,0.089
same,glycan array binding signal (z-score),Gal3S(b1-4)GlcNAc,0.432
same,glycan array binding signal (z-score),[5],0.751
same,glycan array binding signal (z-score),[6],0.208
same,glycan array binding signal (z-score),[7],0.131
same,glycan array binding signal (z-score),Gal3S4S(b1-4)GlcNAc,0.85
same,glycan array binding signal (z-score),Gal3S6S(b1-4)GlcNAc,-0.174
same,glycan array binding signal (z-score),Gal3S6S(b1-4)GlcNAc6S,0.582
same,glycan array binding signal (z-score),Gal4S(b1-4)GlcNAc,0.495
same,glycan array binding signal (z-score),Gal4S6S(b1-4)GlcNAc,0.671
same,glycan array binding signal (z-score),Gal6P(b1-4)GlcNAc,-0.224
same,glycan array binding signal (z-score),Gal6S(b1-3)GlcNAc,0.63
same,glycan array binding signal (z-score),Gal6S(b1-3)GlcNAc6S,1.44
same,glycan array binding signal (z-score),Gal6S(b1-4)Glc,-0.189
same,glycan array binding signal (z-score),Gal6S(b1-4)Glc6S,0.389
same,glycan array binding signal (z-score),Gal6S(b1-4)GlcNAc,-0.682
same,glycan array binding signal (z-score),Gal6S(b1-4)GlcNAc6S,0.259
same,glycan array binding signal (z-score),GalNAc(a1-3)Gal,0.625
same,glycan array binding signal (z-score),GalNAc(a1-3)GalNAc,-0.967
same,glycan array binding signal (z-score),[8],-0.45
same,glycan array binding signal (z-score),[9],0.547
same,glycan array binding signal (z-score),GalNAc(b1-3)Gal,-0.351
same,glycan array binding signal (z-score),[10],1.14
same,glycan array binding signal (z-score),[11],-0.002
same,glycan array binding signal (z-score),[12],0.416
same,glycan array binding signal (z-score),GalNAc(b1-3)GalNAc,-0.606
same,glycan array binding signal (z-score),GalNAc(b1-3)GlcNAc,-0.582
same,glycan array binding signal (z-score),GalNAc(b1-4)Gal(b1-4)Glc,-0.801
same,glycan array binding signal (z-score),GalNAc(b1-4)GlcNAc,0.694
